Here are results for one molecule from patent US8679479.

Amino acid sequences for entries named in this document (tags omitted). A change or cut given only in a name is not applied to a line headed by its entry.
UniProt P05089: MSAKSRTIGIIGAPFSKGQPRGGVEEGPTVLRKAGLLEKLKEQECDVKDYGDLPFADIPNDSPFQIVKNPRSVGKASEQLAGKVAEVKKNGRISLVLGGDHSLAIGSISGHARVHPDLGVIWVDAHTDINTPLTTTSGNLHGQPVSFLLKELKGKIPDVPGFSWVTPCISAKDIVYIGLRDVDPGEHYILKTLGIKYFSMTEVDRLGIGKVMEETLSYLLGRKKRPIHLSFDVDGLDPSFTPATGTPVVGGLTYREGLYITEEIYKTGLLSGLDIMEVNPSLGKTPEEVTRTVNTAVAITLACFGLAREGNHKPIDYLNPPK

Results are given in words; binding and its absence hold for the method and conditions named. Some results given as binding are weak or reduced against the parent protein; the word gives no strength.

Assay [1] deals with human Arginase I (hArgI), N-terminal Cys variant NTC-hArgI (human) (UniProt P05089). Briefly: SEC at pH 7.4 and pH 4.5 (self-association).
Assay [2] has the same target. Briefly: SEC, Superdex 200, PBS pH 7.4 (self-association). (SEC sorts molecules by how far they enter the pores of the column.)

B1: human Arginase I (hArgI), N-terminal Cys variant NTC-hArgI (enzyme)
chain: MGCSHHHHHHSSGSAKSRTIGIIGAPFSKGQPRGGVEEGPTVLRKAGLLEKLKEQECDVKDYGDLPFADIPNDSPFQIVKNPRSVGKASEQLAGKVAEVKKNGRISLVLGGDHSLAIGSISGHARVHPDLGVIWVDAHTDINTPLTTTSGNLHGQPVSFLLKELKGKIPDVPGFSWVTPCISAKDIVYIGLRDVDPGEHYILKTLGIKYFSMTEVDRLGIGKVMEETLSYLLGRKKRPIHLSFDVDGLDPSFTPATGTPVVGGLTYREGLYITEEIYKTGLLSGLDIMEVNPSLGKTPEEVTRTVNTAVAITLACFGLAREGNHKPIDYLNPPK
For B1, the binding result in assay [1] and in assay [2] was “binds” each time.
